These are yes or no findings as the source states them, for the method shown. In cells and extracts the contact can be indirect. A yes stands for co-enrichment or nearness to the bait. Other partners may have been found.
Biological target: T1, recombinant extracellular domain of mouse DCIR1 (mDCIR1-ECD), chemically biotinylated (mouse) (UniProt Q923C7)
T1 sequence (chain, biotin (chemical, EZ-Link Sulfo-NHS-LC-Biotin)): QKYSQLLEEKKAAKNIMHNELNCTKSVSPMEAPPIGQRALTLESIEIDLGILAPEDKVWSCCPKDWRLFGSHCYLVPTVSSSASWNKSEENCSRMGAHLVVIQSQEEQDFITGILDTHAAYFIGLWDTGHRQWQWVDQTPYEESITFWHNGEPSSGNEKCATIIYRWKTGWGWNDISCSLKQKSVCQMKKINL
Test: affinity purification with mass spectrometry

Amino acid sequences for entries named in this document (tags omitted). Residues count along the entry.
UniProt P35441, residues 19-1170: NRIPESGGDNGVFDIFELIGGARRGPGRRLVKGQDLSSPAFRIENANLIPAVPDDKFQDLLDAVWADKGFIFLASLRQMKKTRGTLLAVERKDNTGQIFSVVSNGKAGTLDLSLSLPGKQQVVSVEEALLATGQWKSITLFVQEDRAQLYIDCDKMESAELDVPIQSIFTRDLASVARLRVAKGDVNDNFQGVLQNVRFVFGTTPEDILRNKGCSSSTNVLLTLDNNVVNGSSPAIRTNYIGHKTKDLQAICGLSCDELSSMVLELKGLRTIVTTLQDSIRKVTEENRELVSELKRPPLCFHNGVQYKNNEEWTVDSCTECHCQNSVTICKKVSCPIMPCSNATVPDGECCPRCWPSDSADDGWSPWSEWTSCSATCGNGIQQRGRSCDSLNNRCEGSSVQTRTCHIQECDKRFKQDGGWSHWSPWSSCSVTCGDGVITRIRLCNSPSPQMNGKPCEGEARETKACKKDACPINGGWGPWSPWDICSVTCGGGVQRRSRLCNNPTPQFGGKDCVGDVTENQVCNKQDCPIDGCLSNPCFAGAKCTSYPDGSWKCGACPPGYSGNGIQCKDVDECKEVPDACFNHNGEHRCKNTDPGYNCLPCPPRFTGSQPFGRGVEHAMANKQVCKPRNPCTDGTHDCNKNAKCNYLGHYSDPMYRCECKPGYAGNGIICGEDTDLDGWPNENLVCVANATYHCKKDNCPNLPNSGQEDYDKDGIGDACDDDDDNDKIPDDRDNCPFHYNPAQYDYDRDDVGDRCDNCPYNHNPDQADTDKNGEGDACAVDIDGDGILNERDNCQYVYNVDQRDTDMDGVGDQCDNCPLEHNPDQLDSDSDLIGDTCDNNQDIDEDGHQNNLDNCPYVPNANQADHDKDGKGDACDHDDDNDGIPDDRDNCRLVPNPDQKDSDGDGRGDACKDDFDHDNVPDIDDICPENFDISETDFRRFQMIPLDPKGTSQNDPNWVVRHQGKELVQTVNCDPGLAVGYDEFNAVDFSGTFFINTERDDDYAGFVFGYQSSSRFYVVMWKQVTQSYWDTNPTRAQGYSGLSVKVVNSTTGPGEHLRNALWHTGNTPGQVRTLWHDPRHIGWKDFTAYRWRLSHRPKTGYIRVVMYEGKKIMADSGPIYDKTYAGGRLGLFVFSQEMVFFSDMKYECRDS

With “Thrombospondin 1 (THBS1) (from UniProt P35441 19-1170)” as the substance, how does the binding read?
The binding was “binds”.
